Measurements as given in PubChem BioAssay AID588590 (National Center for Advancing Translational Sciences (NCATS), 2011).
Out of some 390,000 compounds screened, about 4,000 (1%) were called active. The inconclusive results got no clear call from the source; some entries with a clear call stand among them for comparison. Calls follow the shape of the dose curve; as a rule, active = well fitted inhibition curve with a large enough effect; inconclusive = small, poorly fitted or top-dose-only effect, or another doubt; inactive = no such curve, though single readings can be large or run the other way. A potency beside an inconclusive call is a rough fit, not a confirmed value.
Potency is read from the fitted curve at half-maximal effect.

Sequences of proteins named here, by UniProt entry; tags and fusion partners are left off. A change or cut given only in a name is not applied to a line headed by its entry.
UniProt Q9UNA4: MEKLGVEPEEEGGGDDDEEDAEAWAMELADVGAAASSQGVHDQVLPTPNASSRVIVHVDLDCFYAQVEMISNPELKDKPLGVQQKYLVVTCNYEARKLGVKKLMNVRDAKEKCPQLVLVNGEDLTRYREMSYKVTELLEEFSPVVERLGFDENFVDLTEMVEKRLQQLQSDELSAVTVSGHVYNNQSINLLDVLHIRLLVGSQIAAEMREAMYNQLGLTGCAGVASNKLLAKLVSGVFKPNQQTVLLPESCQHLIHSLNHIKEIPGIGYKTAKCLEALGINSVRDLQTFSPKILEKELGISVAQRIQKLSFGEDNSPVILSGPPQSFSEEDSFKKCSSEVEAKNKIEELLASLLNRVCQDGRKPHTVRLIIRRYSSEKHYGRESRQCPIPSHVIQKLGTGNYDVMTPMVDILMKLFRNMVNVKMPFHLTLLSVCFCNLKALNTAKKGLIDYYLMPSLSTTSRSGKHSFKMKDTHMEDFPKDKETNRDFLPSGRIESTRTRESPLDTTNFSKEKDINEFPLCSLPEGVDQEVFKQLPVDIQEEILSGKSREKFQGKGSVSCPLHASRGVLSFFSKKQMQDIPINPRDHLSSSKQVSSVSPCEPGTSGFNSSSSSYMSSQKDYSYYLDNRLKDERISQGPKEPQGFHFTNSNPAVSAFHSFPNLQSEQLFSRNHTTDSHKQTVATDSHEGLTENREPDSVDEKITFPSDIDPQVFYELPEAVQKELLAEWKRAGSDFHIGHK

The compounds below were run against DNA polymerase iota (Homo sapiens) (UniProt Q9UNA4) (assay: qHTS for Inhibitors of Polymerase Iota). Conditions: Pol iota fluorescent replication assay, 10 min; series mostly up to 115 µM.
Outline: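 Pol iota at 10 nM preincubated 15 min with compounds at room temperature; reaction started with fluorescent substrate, 50 nM final. Fluorescence read kinetically at 0 and 10 min; buffer-only wells as negative control.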
In the case of `CC(=O)Oc1ccc(-c2cc3c(OC(C)=O)cc(OC(C)=O)cc3oc2=O)cc1`, the Potency is reported as inconclusive: 56.2 µM [inhibitor, partial curve, poor fit]. In the case of `Oc1nc(Nc2ccc(Cl)cc2Cl)sc1/C=C1\C=Nc2ccccc21`, the Potency is reported as inconclusive: 20 µM [inhibitor, full curve, poor fit]. In the case of `Cc1ccc2c(c1)C1C=CCC1C(C(=O)NCCCN1CCOCC1)N2` (centres undefined), the Potency is reported as “inactive”. With `Cc1ccc(NC(=O)Cn2c(-c3cncs3)nc3ccccc32)c(Br)c1` the Potency was inconclusive: 89.1 µM [inhibitor, single point]. `COc1cc2nc(CCNCc3ccccc3)nc(NC3CCN(C)CC3)c2cc1OC` was tested, and the Potency was “inactive”. In the case of `CCCOc1ccc(N)cc1N`, the Potency is reported as inconclusive: 2 µM [inhibitor, full curve, poor fit]. `CN(C)c1nc(N/N=C/c2c[nH]c3ccccc23)nc(N2CCOCC2)n1` was tested, and the Potency was inconclusive: 31.6 µM [inhibitor, partial curve, poor fit]. For `CC(=O)Oc1ccc(C(=O)Nc2ccccc2C(=O)Nc2cccc(C(=O)O)c2)cc1`, the Potency was “inactive”. With `Cc1cc(S(=O)(=O)N2CCOCC2)ccc1OCC(=O)NCc1ccccn1` the Potency was “inactive”. For `O=C(NCc1ccco1)N1c2ccccc2Sc2ccccc21`, the Potency was inconclusive: 79.4 µM [inhibitor, partial curve]. In the case of `Cc1cccc(NC(=O)c2sc3nc(N)c(C#N)cc3c2N)c1`, the Potency is reported as “inactive”. For `NS(=O)(=O)c1ccc(NC(=O)CSc2ccc3ccccc3n2)cc1`, the Potency was inconclusive: 25.1 µM [inhibitor, single point]. With `CN(C)c1cccc2c(S(=O)(=O)N3CCOCC3)cccc12` the Potency was inconclusive: 35.5 µM [inhibitor, single point]. With `Cc1ccc(-c2nn3c(C)nnc3c3ccccc23)cc1S(=O)(=O)NCc1ccco1` the Potency was inconclusive: 70.8 µM [inhibitor, single point]. In the case of `COc1ccccc1C(=O)NC(=O)COC(=O)c1ncc(Cl)c(Cl)c1Cl`, the Potency is reported as inconclusive: 17.8 µM [inhibitor, partial curve, poor fit]. With `COCCn1c(C)cc(C(=O)COC(=O)c2ccc([N+](=O)[O-])o2)c1C` the Potency was inconclusive: 50.1 µM [inhibitor, partial curve, poor fit]. `Cc1ccc(S(=O)(=O)N2Cc3ccccc3CC2C(=O)Nc2ccc3c(c2)OCO3)cc1` (centres undefined) was tested, and the Potency was inconclusive: 12.6 µM [inhibitor, partial curve, poor fit]. `COc1cc2c(C)nc(C)c(C#N)c2cc1OC` was tested, and the Potency was inconclusive: 6.31 µM [inhibitor, partial curve, poor fit]. In the case of `COc1ccc(C2CC(c3ccccc3O)=NN2c2ccccc2)cc1` (centres undefined), the Potency is reported as “inactive”. With `CCc1cccc(C)c1NC(=O)Cn1nnc(-c2nc(-c3ccccc3F)no2)c1N` the Potency was “inactive”. `CCc1ccc(NC(=O)C2CCCN2S(=O)(=O)c2ccc3c(c2)CCCC(=O)N3)cc1` (centres undefined) was tested, and the Potency was “inactive”. With `CCn1nc(CC(=O)Nc2ccc(-n3cnnn3)c(OC)c2)c2ccccc2c1=O` the Potency was “inactive”. `COc1ccc(CCNC(=O)c2ccc(Cn3c(=O)c4ccccc4n(Cc4cccc(F)c4)c3=O)cc2)cc1OC` was tested, and the Potency was inconclusive: 100 µM [inhibitor, partial curve, poor fit]. With `O=C(CSc1nnnn1C1CCCC1)NCc1cccs1` the Potency was inconclusive: 22.4 µM [inhibitor, partial curve, poor fit]. With `NS(=O)(=O)c1ccc(N/N=C/c2ccccc2C(=O)O)c([N+](=O)[O-])c1` the Potency was “inactive”. In the case of `O=C1c2ccccc2CCc2ccccc21`, the Potency is reported as “inactive”. With `O=C(Cn1cc(COc2ccc(C(=O)c3ccccc3)cc2)nn1)c1ccc(O)cc1` the Potency was inconclusive: 14.1 µM [inhibitor, partial curve, poor fit]. With `COc1cc(/C=C2/SC(=S)NC2=O)ccc1OS(=O)(=O)c1ccc(C)cc1` the Potency was inconclusive: 31.6 µM [inhibitor, single point]. For `COc1ccc(-c2cc3ccc(O)c(CN4CCCC4)c3oc2=O)cc1`, the Potency was “inactive”. `Cc1cc(C(=O)Nc2ccc(Cl)cc2)c(C)n1-c1ccccc1` was tested, and the Potency was “inactive”. For `Cc1ccc(C(=O)CCC(=O)NCc2ccccc2)cc1`, the Potency was inconclusive: 35.5 µM [inhibitor, partial curve, poor fit]. `CCCSc1nc(-c2ccccc2)[nH]c1S(=O)(=O)c1ccc(C)cc1` was tested, and the Potency was “inactive”. For `COc1ccc(-c2n[nH]c3c2cnc2ccc(F)cc23)cc1`, the Potency was “inactive”. In the case of `COC(=O)CN1C(=O)[C@@H]2[C@H](C1=O)[C@@H]1CC(C(=O)OC)=C[C@@H](C(=O)OC)C3C1=C(C(=O)C31CCCCC1)[C@@H]2C` (some centres undefined), the Potency is reported as “inactive”. With `CC(C(=O)Nc1cc(Cl)cc(Cl)c1)N1CCCC1` (centres undefined) the Potency was “inactive”. In the case of `COc1ccc(C(=O)NC2CCC(O)CC2)cc1S(=O)(=O)NCc1ccc(Cl)cc1` (centres undefined), the Potency is reported as inconclusive: 44.7 µM [inhibitor, partial curve, poor fit]. With `Cc1cc(C)cc(NC(=O)C2CCN(S(=O)(=O)c3cn(C)cn3)CC2)c1` the Potency was “inactive”. `Cc1cccc(OCCCC(=O)NCC(=O)Nc2cccc(C)c2C)c1` was tested, and the Potency was inconclusive: 100 µM [inhibitor, single point]. In the case of `N#CCC(=O)N/N=C/c1ccc(OCc2ccccc2)cc1`, the Potency is reported as inconclusive: 3.55 µM [inhibitor, partial curve, poor fit]. `CC1CC2(CCCCC2)Nc2c1ccc1ccccc21` (centres undefined) was tested, and the Potency was inconclusive: 14.1 µM [inhibitor, partial curve, poor fit]. `O=C(O)/C=C/c1cn(-c2ccccc2)nc1-c1ccc(-c2ccc([N+](=O)[O-])cc2)o1` was tested, and the Potency was inconclusive: 28.2 µM [inhibitor, single point]. `CN1C(=O)c2ccccc2Sc2ccc(NC(=O)N3CCN(c4ccccc4)CC3)cc21` was tested, and the Potency was “inactive”. With `O=C(/C=C/c1ccc(OC2CSC2)cc1)c1ccccc1` the Potency was inconclusive: 11.2 µM [inhibitor, partial curve, poor fit]. For `CC1=C(c2ccc(C)cc2)S(=O)(=O)N(Cc2ccc(C(=O)Nc3ccc(C)c(F)c3)cc2)C1=O`, the Potency was inconclusive: 50.1 µM [inhibitor, partial curve, poor fit].
